From PubChem BioAssay AID2685 (National Center for Advancing Translational Sciences (NCATS), 2010)
This is one part of the list. Shown are side measurements of this screen, not its main read-out; they come without a call. Most of these compounds were active or inconclusive in the main read-out, so they are no random draw. Words in brackets tell the shape of the fitted curve; partial curves, single points and poor fits give uncertain potencies.

Test: qHTS Assay for Lipid Storage Modulators in Drosophila S3 Cells;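 on cell number change: cells counted by Cell Tracker Red CMTPX staining in the red channel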
Settings: BODIPY lipid droplet fluorescence, 18-24 h; for cell number change: measured here: cell count max response, cells fed with added oleic acid
Procedure, shortened: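 Drosophila S3 cells loaded with oleic acid (400 uM, as added) and compounds at several concentrations; lipid droplets imaged by 488-nm laser-scanning cytometry, 500–530 nm intensity and object ratio to cell channel. Percent activity normalized to 20 uM Triacsin C.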

[1] = measured here: lipid fluorescence (Fed channel) AC50, cells fed with added oleic acid
[2] = measured here: cell number channel AC50, cells fed with added oleic acid

Row | Compound | cell number change [%] | AC50 [1] | AC50 [2]
1 | O=C(O)c1cc([N+](=O)[O-])ccc1C(=O)Nc1ccccc1 | 4.17 |  | 
2 | O=C(Nc1ccncc1)C1CCN(S(=O)(=O)c2c(Cl)cccc2Cl)CC1 | -18.7 | 1.03 µM [falling, partial curve] | 
3 | CCn1c(SCC(=O)N/N=C/c2c[nH]c3ccccc23)nnc1-c1ccc(C(C)(C)C)cc1 | -8.24 | 29.1 µM [falling, single point] | 
4 | Cc1cccc(/C=N/NC(=O)c2cc(C)nc3ccccc23)n1 | 33.3 |  | 20.6 µM [rising, single point]
5 | CC1(C)Cc2c(sc3nc4n(c(=N)c23)CCC4)CO1 | -187 | 20.6 µM [falling, partial curve] | 23.1 µM [falling, partial curve]
6 | O=C(CCC(=O)N1CCN(S(=O)(=O)c2ccc3ccccc3c2)CC1)NCC(F)(F)F | -11.9 | 0.82 µM [falling, full curve, poor fit] | 
7 | COc1cc(/C=C2\CCC(C3CCCC3)C2=O)ccc1OC(C)C (configuration not stated) | 21.3 | 1.84 µM [rising, partial curve, poor fit] | 
8 | COc1ccc(CNC(=O)CN(c2cccc([N+](=O)[O-])c2)S(C)(=O)=O)cc1 | -44.5 | 0.00731 µM [falling, full curve, poor fit] | 10.3 µM [falling, single point]
9 | COc1ccc([N+](=O)[O-])cc1/C=N/Nc1nn[nH]n1 | -36.4 | 2.59 µM [falling, single point] | 4.61 µM [falling, full curve]
10 | Cc1ccc(C)c(-n2nnnc2SCC(=O)c2ccc3c(c2)NC(=O)CO3)c1 | -62.5 | 14.6 µM [falling, single point] | 16.4 µM [falling, single point]
11 | COc1ccc(CNC(=O)CSc2nc3nc(C)cc(C)n3n2)cc1 | -3.95 |  | 
12 | O=C(CCC(=O)N1CCOc2ccc(Cl)cc21)NCCCN1CCC(Cc2ccccc2)CC1 | -3.17 | 5.17 µM [falling, partial curve] | 
13 | O=C(c1ccncc1)N1CCCC(N2CCN(c3ccc(F)cc3)CC2)C1 (configuration not stated) | 45.4 |  | 13 µM [rising, partial curve, poor fit]
14 | CCC(=O)Nc1ccc(C(=O)N2CCN(C(=O)c3ccco3)CC2)cc1 | 19.7 |  | 0.082 µM [falling, full curve, poor fit]
15 | O=C(NCCN1CCOCC1)c1ccc(NS(=O)(=O)c2ccccc2)cc1 | 5.2 | 29.1 µM [falling, single point] | 

Part of the list above in order of heavy-atom count, falling:
Row | Compound | cell number change [%] | AC50 [1] | AC50 [2]
13 | O=C(c1ccncc1)N1CCCC(N2CCN(c3ccc(F)cc3)CC2)C1 (configuration not stated) | 45.4 |  | 13 µM [rising, partial curve, poor fit]
14 | CCC(=O)Nc1ccc(C(=O)N2CCN(C(=O)c3ccco3)CC2)cc1 | 19.7 |  | 0.082 µM [falling, full curve, poor fit]
5 | CC1(C)Cc2c(sc3nc4n(c(=N)c23)CCC4)CO1 | -187 | 20.6 µM [falling, partial curve] | 23.1 µM [falling, partial curve]
